Experimental data: patent publication US12649751B2 (Arcus Biosciences, Inc., priority 2022, dated 2026)

The chains behind the UniProt entries cited, without tags or fusion partners.
UniProt Q92918, whole entry: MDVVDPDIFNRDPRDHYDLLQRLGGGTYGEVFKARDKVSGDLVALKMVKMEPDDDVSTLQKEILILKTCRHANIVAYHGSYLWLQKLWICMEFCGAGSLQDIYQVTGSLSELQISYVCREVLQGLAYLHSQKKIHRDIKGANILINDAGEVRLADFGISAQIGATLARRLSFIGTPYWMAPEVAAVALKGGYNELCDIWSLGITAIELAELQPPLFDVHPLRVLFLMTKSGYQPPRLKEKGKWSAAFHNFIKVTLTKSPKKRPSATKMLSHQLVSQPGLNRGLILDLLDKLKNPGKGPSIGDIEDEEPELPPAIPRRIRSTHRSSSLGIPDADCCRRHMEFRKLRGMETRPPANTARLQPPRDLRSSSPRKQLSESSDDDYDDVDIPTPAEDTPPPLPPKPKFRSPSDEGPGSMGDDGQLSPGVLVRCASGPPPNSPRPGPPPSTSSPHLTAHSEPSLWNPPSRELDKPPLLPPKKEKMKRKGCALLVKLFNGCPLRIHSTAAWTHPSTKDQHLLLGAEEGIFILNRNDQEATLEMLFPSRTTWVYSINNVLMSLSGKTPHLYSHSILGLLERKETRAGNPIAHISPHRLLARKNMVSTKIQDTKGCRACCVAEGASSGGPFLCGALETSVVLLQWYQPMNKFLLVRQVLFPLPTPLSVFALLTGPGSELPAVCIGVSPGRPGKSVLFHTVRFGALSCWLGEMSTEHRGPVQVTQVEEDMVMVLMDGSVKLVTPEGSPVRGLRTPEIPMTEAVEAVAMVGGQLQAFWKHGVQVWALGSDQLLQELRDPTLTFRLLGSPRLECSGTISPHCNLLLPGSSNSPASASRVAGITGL

Tests used:
[1] = molecular target: HPK1 (Homo sapiens, UniProt Q92918); test: HPK1 Biochemical Assay (ADP-Glo luminescence; low ATP 10 μM or high ATP 200 μM)
Experimental: Dose-response assays were performed in Corning® Low Volume 384-well assay plates containing 100 nL of 22 serial 2-fold compound dilutions. Wells containing DMSO alone were used as negative control. A kinase mixture (5 μL) containing 2 nM HPK1 (or 5 nM for high ATP assay) in assay buffer (50 mM Hepes pH 7.4, 10 mM MgCl2, 0.01% Brij-15, 0.01% bovine serum albumin, and 1 mM dithiothreitol) was added to the assay plates and incubated at 25° C. for 1 hour. Wells without HPK1 were used as positive control. A […] of 10 μM ATP (or 200 μM for high ATP) and 0.2 μg/μL […] was then added to the wells, resulting in a 10 μL total reaction volume. Following incubation of the assay plates at 25° C. for 1 hour, 10 μL of ADP-Glo reagent was added to the wells and the plates were incubated at 25° C. for a further 40 minutes (or 1 hour for high ATP assay). Finally, 20 μL of Kinase Detection Reagent was added, and the plates were incubated for another 30 minutes at 25° C. An Envision plate reader was then used to detect the luminescence signals. IC50 values were determined by fitting the data to a standard 4-parameter logistic equation. The results are summarized in the Biochemical Potency columns of Tables 4 and 5 below (Biochemical Potency (high ATP); Biochemical Potency (low ATP)).

[2] = test system: p-SLP-76 (Ser376) in Jurkat cells; test: pSLP76 Cellular Assay (AlphaLISA SureFire Ultra p-SLP-76 (Ser376), anti-CD3 activated Jurkat cells); details: read-out: Cellular Potency
Experimental: pSLP76 cellular assay was performed using Jurkat cells and the AlphaLISA SureFire Ultra p-SLP-76 (Ser376) Assay Kit (PerkinElmer). Dose-response assays were performed in Greiner® Low Volume 384-well assay plates containing 200 nL of 22 serial 2-fold compound dilutions using Bravo and Echo. Jurkat cells were grown in RPMI-1640 supplemented with 10% FBS and PSG. The day prior to the assay, the cells were collected, and serum starved overnight in Opti-MEM. The day of the assay, the cells were collected and resuspended in HBSS. 100,000 cells/well were added to the compound plates and after a short spin, the plates were incubated at 37° C. for 1 h. The cells were activated by adding 10 μL of 0.025 mg/ml anti-CD3. Plates were then incubated at 37° C. for 45 min. Stimulation was terminated by adding […], followed by a brief centrifugation and 60 min of shaking at 300 rpm. Cell lysates (10 μL) were transferred to 384-well White Opti-plates and the samples were processed according to the manufacturer's directions. The fluorescence signal from pSLP76 was measured at 570 nm using Envision plate reader. IC50 values were determined by fitting the data to a standard 4-parameter logistic equation. The results are summarized in the Cellular Potency columns in Tables 4 and 5 below (Cellular Potency).

Work on `Cc1cccnc1-c1nc2cnc(Nc3cccc(N4CCC5NCCC54)n3)cc2s1` (stereo not shown) yielded a pIC50 ([1]; read-out: Biochemical Potency (low ATP), 2 nM HPK1, 10 μM ATP) greater than 7.00 and a pIC50 ([2]; Jurkat cells, anti-CD3 stimulation, pSLP76) of less than 5.30.
For `Cc1cc(Nc2cc3nc(-c4cccc(C(=O)N(C)C)c4)sc3cn2)nc(N2C[C@@H]3C[C@H]2CN3CC2CCOCC2)n1`, the pIC50 ([1]; read-out: Biochemical Potency (high ATP), HPK1 ADP-Glo assay, high ATP (200 μM ATP, 5 nM HPK1)) was greater than 7.00 and the pIC50 ([2]; pSLP76 (Ser376) AlphaLISA, anti-CD3 activated Jurkat cells) was 5.30 to 6.00.

pIC50: −log10 of the molar value. Like-named read-outs stand apart in the source and are kept apart here. Structures were worked out from names or drawings and are uncertain.
